The test in a line: qHTS Assay for Modulators of Lamin A Splicing. As to conditions: HeLa LMNA splicing GFP/RFP minigene ratio, 48 h. The gist of the method:
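S3 HeLa stable clones carrying a lamin A-EGFP splicing minigene plus DsRed2 were seeded at 600 cells/well in Opti-MEM with 2% FBS, pin-dosed and incubated 48 h at 37°C. Acumen cytometry (488 nm) gave the GFP/RFP total-intensity ratio.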

Where [1] appears, read: measured here: GFP splicing reporter channel.
Where [2] appears, read: measured here: RFP viability control channel.

This is one part of the list. Shown are side measurements of this screen, not its main read-out; they come without a call. Compounds called inactive in the main read-out are mostly missing here. Potencies come from curve fits of mixed quality, noted in brackets.

One may read the AC50 as the concentration giving half of the maximal activity seen. Take `Cc1ccc(C(C)(C)C)cc1S(=O)(=O)Nc1cccc(S(=O)(=O)NC2=NCCC2)c1`: the AC50 under setting [1] is 2.24 µM [rising, full curve, poor fit] and the half-maximal activity concentration (AC50) under setting [2] is 7.08 µM [rising, partial curve]. On to `N#Cc1c(-c2ccccc2)c(C#N)c2nc3ccccc3n2c1N`, for which, under setting [2], the concentration at half-maximal activity (AC50) was 17.8 µM [rising, partial curve]. On the same count and under the same terms, the result for `C/C(=N\NC(=O)c1ccccc1)c1cc2cc([N+](=O)[O-])ccc2oc1=O` reads 35.5 µM [rising, single point]. Consider `C[n+]1ccn(CC(=O)c2ccc(Br)cc2)c1`, for which the half-maximal activity concentration (AC50) under setting [1] is 11.2 µM [rising, single point] and the half-maximal activity concentration (AC50) under setting [2] is 10 µM [rising, partial curve, poor fit]. In the case of `O=[N+]([O-])c1cc(C(F)(F)F)ccc1N1CCCC(O)C1` (stereo unspecified), the AC50 under setting [2] is 12.6 µM [rising, single point]. With `Cc1ccc(NC(=O)c2ccn(C)n2)c(Br)c1`, under setting [2], the AC50 was 0.0141 µM [falling, full curve, poor fit]. For `Cc1nnc(SCC(=O)N2CC(=O)Nc3ccccc32)n1-c1ccccc1`, the AC50 under setting [1] is 0.794 µM [rising, full curve, poor fit]. Consider `CCCCOc1cccc(C(=O)N(Cc2cccs2)C2CCS(=O)(=O)C2)c1` (stereo unspecified), for which, under setting [2], the AC50 is 22.4 µM [rising, single point]. `CCOc1cc(CNC(=O)C2CCN(c3nc4ccccc4[nH]3)CC2)cc(OCC)c1OCC`: the AC50 under setting [1] was 0.447 µM [rising, full curve]. As for `COc1cccc(CC(=O)Nc2ccc(-c3nc4ccccc4s3)cc2Cl)c1`, the concentration at half-maximal activity (AC50) was 1.78 µM [falling, partial curve, poor fit] under setting [1] and 0.00447 µM [falling, full curve, poor fit] under setting [2].

Regarding `CCOc1ccc2nc(SCC(=O)NC3CCCc4ccccc43)sc2c1` (stereo unspecified), the AC50 under setting [1] is 11.2 µM [rising, partial curve] and the AC50 under setting [2] is 10 µM [rising, partial curve]. For the molecule `CCOC(=O)CSC1=NC(=O)CS1`, under setting [2], the AC50 is 0.0794 µM [falling, full curve, poor fit]. On to `O=C(Nc1ccccc1)c1ccc(COc2ccccc2)cc1`, for which, under setting [1], the half-maximal activity concentration (AC50) was 35.5 µM [rising, partial curve].

As to `Cc1ccc2nsnc2c1NC(=O)c1ccc(-c2cc(Cl)ccc2Cl)o1`, the AC50 under setting [2] is 0.0447 µM [rising, full curve, poor fit].

On to `CCN1CCN(C(=S)Nc2ccc3nc(N4CCN(CC)CC4)cc(C)c3c2)CC1`, for which, under setting [2], the AC50 was 20 µM [rising, single point]. Regarding `CCOc1ccc(NC(=O)COC(=O)c2ccc3c(c2)C(=O)N(CCc2ccccc2)C3=O)cc1`, the concentration at half-maximal activity (AC50) under setting [1] was 0.126 µM [rising, full curve, poor fit]. Turning to `COc1ccc(CCNC(=O)CSc2nnc3ccccn23)cc1`, the AC50 was 0.0224 µM [falling, full curve] under setting [1] and 0.0178 µM [falling, full curve] under setting [2].

For the molecule `CCc1ccccc1NS(=O)(=O)c1ccc2c(c1)CCCN2C(=O)C1CCC1`, the AC50 under setting [1] was 1.41 µM [falling, full curve] and the half-maximal activity concentration (AC50) under setting [2] is 5.01 µM [falling, partial curve, poor fit]. Take `Cc1nn2c(=O)cc(COC(=O)c3ccccc3NC(=O)c3cccs3)nc2s1`: the AC50 under setting [1] was 3.16 µM [rising, partial curve, poor fit].

Take `COc1ccc(Cc2c(Cl)ncnc2Cl)cc1`: the AC50 under setting [2] is 31.6 µM [rising, single point]. `Cc1cc(C)c(S(=O)(=O)N2CCCOC2CNC(=O)C(=O)NCCc2c[nH]c3ccccc23)c(C)c1` (stereo unspecified): the half-maximal activity concentration (AC50) under setting [2] is 14.1 µM [rising, partial curve]. For the molecule `O=C(Nc1cccnc1Cl)c1cc([N+](=O)[O-])ccc1Cl`, the AC50 under setting [1] was 0.00355 µM [rising, full curve, poor fit].

For the molecule `C/C(O)=C\c1nc2ccccc2oc1=O`, under setting [2], the AC50 is 11.2 µM [rising, single point]. `Cc1c(C(=O)N2CCN(c3ccccc3F)CC2)sc2nc(-c3ccccc3)cn12`: the AC50 under setting [2] was 12.6 µM [rising, partial curve]. Take `Cc1ncn(-c2ccc(C(=O)Oc3ccccc3)cn2)n1`: the AC50 under setting [2] is 35.5 µM [falling, single point]. In the case of `CCN1CCN(c2ccc(NC(=O)CCc3c(C)nc4c(-c5ccc(F)cc5)c(C)nn4c3C)cc2)CC1`, the AC50 under setting [1] is 0.794 µM [falling, full curve, poor fit]. Still for that read-out and setting: the result for `CC(C)OC(=O)CSc1nnc(-c2ccc([N+](=O)[O-])cc2)o1` reads 1.26 µM [falling, full curve, poor fit]. With `CN1CCN(Cc2c(O)ccc3cc(-c4ccc(Cl)cc4)c(=O)oc23)CC1`, under setting [1], the half-maximal activity concentration (AC50) is 12.6 µM [falling, single point]. For the molecule `CN(Cc1ccccc1)c1nc(N)c([N+](=O)[O-])c(NCc2ccccc2)n1`, the AC50 under setting [2] is 14.1 µM [rising, single point]. As for `Cc1ccccc1CSCC(=O)N1CCN(c2ccccc2)CC1`, the AC50 runs as follows: under setting [1], 35.5 µM [rising, single point]; under setting [2], 35.5 µM [rising, single point].

For `O=C(CN1CCN(c2ccccc2F)CC1)Nc1ccccc1F`, the half-maximal activity concentration (AC50) under setting [1] is 0.0708 µM [rising, full curve, poor fit]. On to `OC(COc1ccccc1CNCc1cccnc1)CN1CCc2ccccc2C1` (stereo unspecified), for which the AC50 under setting [1] is 3.16 µM [falling, full curve, poor fit]. For `Cc1ccccc1CSCCNC(=O)c1ccc(Cl)c(S(=O)(=O)N2CCOCC2)c1`, the concentration at half-maximal activity (AC50) is 35.5 µM [rising, single point] under setting [1] and 31.6 µM [rising, single point] under setting [2].

Regarding `O=C(NCCC1=CCCCC1)C1CCN(Cc2cnn(-c3ccccc3)c2-n2cccc2)CC1`, the AC50 under setting [2] was 12.6 µM [rising, partial curve]. Turning to `N#CC1=C(N)OC2=C(C(=O)CC(c3ccccc3)C2)C1c1cccnc1` (stereo unspecified), the AC50 runs as follows: under setting [1], 3.55 µM [rising, single point]; under setting [2], 0.0501 µM [rising, full curve, poor fit].

For `N#Cc1c(Oc2ccc3ccccc3c2)sc(C(=O)c2ccccc2)c1N`, the half-maximal activity concentration (AC50) under setting [1] is 3.16 µM [falling, single point]. `COc1cccc(Nc2ncc3nc(-c4cccs4)c(=O)n(Cc4cccs4)c3n2)c1`: the AC50 under setting [2] is 14.1 µM [falling, partial curve, poor fit]. With `C(=N/Nc1cc(N2CCOCC2)nc(N2CCOCC2)n1)/c1ccccc1`, under setting [2], the AC50 was 0.0794 µM [rising, partial curve]. On the same count and under the same terms, as for `COc1ccc(Nc2nc(S(=O)(=O)c3ccc(C)cc3)c(Cl)s2)cc1`, the figure is 12.6 µM [rising, partial curve, poor fit].

Take `CC(C)(C)OC(=O)N1CCC(c2c(C(=O)Nc3ccc4c(c3)OCCO4)cnn2-c2ccc(F)cc2F)CC1`: the AC50 under setting [1] is 2.24 µM [falling, partial curve, poor fit]. For the molecule `CC(O)Cn1nc([N+](=O)[O-])nc1N` (stereo unspecified), under setting [2], the concentration at half-maximal activity (AC50) was 0.0891 µM [falling, full curve, poor fit]. Still for that read-out and setting: the result for `O=C(/C=C/c1ccc(Cl)cc1Cl)NC(=S)Nc1ccccn1` reads 0.141 µM [rising, full curve, poor fit]; that for `COc1ccc(CNC(=O)Nc2cccc(C(F)(F)F)c2)cc1OC`, 11.2 µM [rising, partial curve]. Consider `O=C(Nc1cccc(OCc2cc(=O)n3ccccc3n2)c1)c1ccccc1Br`, for which, under setting [1], the AC50 was 8.91 µM [falling, partial curve, poor fit].

Consider `COc1ccc(NC(=O)CC2C(=O)N(C)C(=S)N2CCc2ccccc2)cc1` (stereo unspecified), for which the AC50 was 11.2 µM [rising, partial curve, poor fit] under setting [1] and 25.1 µM [rising, single point] under setting [2]. Regarding `O=C(NCCc1cccc(Cl)c1)c1cc([N+](=O)[O-])ccc1Cl`, the half-maximal activity concentration (AC50) under setting [2] was 20 µM [rising, single point]. Take `COc1ccccc1CCNC(=O)C(=O)NCC(c1ccco1)S(=O)(=O)c1ccc(F)cc1` (stereo unspecified): the half-maximal activity concentration (AC50) under setting [1] was 11.2 µM [falling, single point] and the AC50 under setting [2] was 12.6 µM [falling, single point]. Take `Cc1ccc(Cl)cc1N1CCN(C(=O)c2ccc(NS(=O)(=O)c3c(C)noc3C)cc2)CC1`: the concentration at half-maximal activity (AC50) under setting [2] is 11.2 µM [rising, partial curve]. As to `CC(=O)N1CCc2cc(Br)cc(S(=O)(=O)N3CCCCCC3)c21`, the concentration at half-maximal activity (AC50) under setting [1] was 31.6 µM [rising, single point]. In the case of `O=C(N/N=C/c1c[nH]c2ccccc12)C1COc2ccccc2O1` (stereo unspecified), under setting [2], the AC50 is 5.01 µM [rising, full curve]. On to `CCOC(=O)N1C(=O)C2(CCCCC2)N(c2ccccc2Cl)C1=S`, for which the AC50 under setting [2] was 15.8 µM [rising, single point].

Consider `CCCn1nc(C(=O)N2CCc3ccccc3C2)c2ccccc2c1=O`, for which the concentration at half-maximal activity (AC50) is, setting by setting: under setting [1], 11.2 µM [rising, partial curve]; under setting [2], 15.8 µM [rising, single point]. As for `Cc1ccc(-c2cc(-c3ccccc3C)[nH]n2)c(O)c1`, under setting [2], the concentration at half-maximal activity (AC50) is 0.562 µM [rising, single point].

Turning to `COCCn1c(SCC(=O)Nc2ccc(S(=O)(=O)N3CCOCC3)cc2)nc2ccccc21`, under setting [2], the concentration at half-maximal activity (AC50) is 12.6 µM [rising, partial curve]. In the case of `CCSc1ccc(C(=O)Nc2ccc(-c3nc4ccc(C)cc4s3)cc2)cc1`, the concentration at half-maximal activity (AC50) is, setting by setting: under setting [1], 0.447 µM [rising, full curve, poor fit]; under setting [2], 0.447 µM [rising, partial curve, poor fit]. `CCOc1ccc(NC(=O)C2CCN(c3nc4ccccc4[nH]3)CC2)cc1`: the concentration at half-maximal activity (AC50) under setting [1] is 0.631 µM [rising, full curve]. Take `CC(C)Cc1nc2oc3c(NCC4CCCO4)ncnc3c2c2c1CCC2` (stereo unspecified): the half-maximal activity concentration (AC50) under setting [1] is 2.82 µM [falling, full curve, poor fit]. `O=c1[nH]c(NCc2ccco2)nnc1Cc1ccccc1Cl`: the concentration at half-maximal activity (AC50) under setting [2] was 35.5 µM [rising, single point].
